PMC1888729
No constants are given. Whether binding was seen depends on the method and setting. In cells and extracts the contact can be indirect. Some results given as binding are weak or reduced against the parent protein; the word gives no strength. Tags and fused reporters may be left off the sequences shown.

Target: T1, His-tagged U2AF35 (HEK-293E), Q01081
T1 chain: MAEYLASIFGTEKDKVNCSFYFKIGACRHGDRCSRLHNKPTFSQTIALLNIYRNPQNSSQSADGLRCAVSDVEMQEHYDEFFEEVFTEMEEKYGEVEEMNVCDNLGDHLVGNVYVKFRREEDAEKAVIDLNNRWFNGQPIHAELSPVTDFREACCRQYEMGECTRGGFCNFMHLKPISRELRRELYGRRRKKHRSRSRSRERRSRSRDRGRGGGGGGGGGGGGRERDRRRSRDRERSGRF
Test: pull-down; His-tagged U2AF35 expressed in 293E cells, lysate (50 mM Tris-HCl pH 8, 1% NP-40, 5 mM imidazole) on Ni-NTA agarose 1 h at 4°C, wash 0.5 M NaCl, eluted with 0.5 M imidazole; western blot; amounts by Coomassie stain against BSA
Conditions: remark: other sources report otherwise

B1: U2AF65 (co-purified from HEK-293E), P26368 1-475 (natural protein)
chain: MSDFDEFERQLNENKQERDKENRHRKRSHSRSRSRDRKRRSRSRDRRNRDQRSASRDRRRRSKPLTRGAKEEHGGLIRSPRHEKKKKVRKYWDVPPPGFEHITPMQYKAMQAAGQIPATALLPTMTPDGLAVTPTPVPVVGSQMTRQARRLYVGNIPFGITEEAMMDFFNAQMRLGGLTQAPGNPVLAVQINQDKNFAFLEFRSVDETTQAMAFDGIIFQGQSLKIRRPHDYQPLPGMSENPSVYVPGVVSTVVPDSAHKLFIGGLPNYLNDDQVKELLTSFGPLKAFNLVKDSATGLSKGYAFCEYVDINVTDQAIAGLNGMQLGDKKLLVQRASVGAKNATLVSPPSTINQTPVTLQVPGLMSSQVQMGGHPTEVLCLMNMVLPEELLDDEEYEEIVEDVRDECSKYGLVKSIEIPRPVDGVEVPGCGKIFVEFTSVFDCQKAMQGLTGRKFANRVVVTKYCDPDSYHRRDFW
  binding: binds
